This is an account of results in patent US20230364104A1, “PHARMACEUTICAL COMBINATION FOR THE TREATMENT OF HUMAN HYPOCHOLINERGIC DISORDERS” (priority 2020, published 2023).

For this series the following is noted: donepezil alone, single increasing oral doses from 5 mg in 5 mg increments, healthy volunteers.

For the molecule `COc1cc2c(cc1OC)C(=O)C(CC1CCN(Cc3ccccc3)CC1)C2` (racemic) [donepezil, (RS)-2-[(1-benzyl-4-piperidyl)methyl]-5,6-dimethoxy-2,3-dihydroinden-1-one], the dose limiting toxicity result is on record as “mainly vomiting”.
